At least one read-out could not be matched to a standard name with certainty.
Tested on: HeLa nuclear extracts enriched in HDAC1 and 2
Experiment: HPLC-based and DTNB-based assays with HeLa nuclear extracts
Type: biochemical, human
Details: HeLa nuclear extract assay conditions, HPLC-based assay (data not shown)
Experimental: HPLC-based enzymatic assay. The HPLC data shown in FIG. 4 was generated using the following procedure. The HDAC8-catalyzed dethioacetylation reaction was performed in the same HDAC8 assay solution as above-described, except that no thioacetic acid was added but purified HDAC8 and its substrate (i.e. the above-described peptide ii) were added to final concentrations of 375 nM and 0.3 mM, respectively. An enzymatic reaction was initiated by the addition of HDAC8 at room temperature and was allowed to be incubated at room temperature until quenched at different time points with the following stop solution: 3.2 M guanidinium chloride in 100 mM of sodium phosphate (pH 6.8). One portion (40 uL) of the HDAC8 assay mixture was quenched with 80 uL of the above stop solution, and was analyzed as set forth above by RP-HPLC with a C18 analytical column (100 Å, 0.46×25 cm), eluting with the following gradient of double deionized water containing 0.05% (v/v) trifluoroacetic acid (mobile phase A) and acetonitrile containing 0.05% (v/v) trifluoroacetic acid (mobile phase B): linear increase from 0% B to 35% B from 0-40 min (1 mL/min), and ultraviolet (UV) monitoring at 214 nm. […]
DTNB-based enzymatic assay. […] Reaction velocities were determined under initial condition (substrate turnover <10%). […]

Compound	recovery of intact peptide from the assay mixture
CSCC[C@H](NC(=O)[C@H](CC(C)C)NC(=O)[C@H](CCCCNC(C)=S)NC(=O)[C@H](CCCCN)NC(=O)[C@H](Cc1c[nH]cn1)NC(=O)[C@H](CCCNC(=N)N)NC(=O)[C@H](CO)NC(=O)[C@@H](NC(=O)[C@H](CO)NC(=O)[C@H](CCC(N)=O)NC(=O)CNC(=O)[C@H](CCCCN)NC(=O)[C@@H](N)CCCCN)[C@@H](C)O)C(=O)N[C@@H](Cc1ccccc1)C(=O)N[C@@H](CCCCN)C(=O)N[C@H](C(=O)N[C@@H](CCC(=O)O)C(=O)NCC(=O)O)[C@@H](C)O [thioacetyl-lysine p53 peptide, H2N-KKGQSTSRHK(ThAcK)LMFKTEG-COOH]	quantitatively recovered
AcNH—RH(ThAcK)(ThAcK)—CONH2	quantitatively recovered
